Experimental data published in PMC8382608.
Results are given in words; binding and its absence hold for the method and conditions named. Binding can be weak; no strength is given.

Protein sequences, listed by entry. Tags and fused reporters are not part of them. Lines headed by an entry give the natural chain unless they say otherwise; changes in a name come on top.
UniProt Q8TD17: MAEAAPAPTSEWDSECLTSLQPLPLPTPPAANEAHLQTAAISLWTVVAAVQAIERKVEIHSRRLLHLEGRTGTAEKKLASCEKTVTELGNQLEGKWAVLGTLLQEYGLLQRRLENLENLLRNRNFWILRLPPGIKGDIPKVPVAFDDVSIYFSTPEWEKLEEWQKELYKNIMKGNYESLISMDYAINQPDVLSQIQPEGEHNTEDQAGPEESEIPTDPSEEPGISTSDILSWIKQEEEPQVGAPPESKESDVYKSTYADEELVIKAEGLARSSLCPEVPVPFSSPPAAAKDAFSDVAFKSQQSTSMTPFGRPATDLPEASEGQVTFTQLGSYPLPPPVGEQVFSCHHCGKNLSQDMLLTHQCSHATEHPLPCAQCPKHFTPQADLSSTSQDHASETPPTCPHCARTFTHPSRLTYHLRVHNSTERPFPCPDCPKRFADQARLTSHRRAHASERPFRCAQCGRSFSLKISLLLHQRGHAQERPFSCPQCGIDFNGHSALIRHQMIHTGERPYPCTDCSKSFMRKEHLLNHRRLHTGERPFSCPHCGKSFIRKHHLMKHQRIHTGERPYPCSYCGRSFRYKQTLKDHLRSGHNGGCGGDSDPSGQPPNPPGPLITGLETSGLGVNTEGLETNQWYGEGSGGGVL
UniProt Q9ULD5: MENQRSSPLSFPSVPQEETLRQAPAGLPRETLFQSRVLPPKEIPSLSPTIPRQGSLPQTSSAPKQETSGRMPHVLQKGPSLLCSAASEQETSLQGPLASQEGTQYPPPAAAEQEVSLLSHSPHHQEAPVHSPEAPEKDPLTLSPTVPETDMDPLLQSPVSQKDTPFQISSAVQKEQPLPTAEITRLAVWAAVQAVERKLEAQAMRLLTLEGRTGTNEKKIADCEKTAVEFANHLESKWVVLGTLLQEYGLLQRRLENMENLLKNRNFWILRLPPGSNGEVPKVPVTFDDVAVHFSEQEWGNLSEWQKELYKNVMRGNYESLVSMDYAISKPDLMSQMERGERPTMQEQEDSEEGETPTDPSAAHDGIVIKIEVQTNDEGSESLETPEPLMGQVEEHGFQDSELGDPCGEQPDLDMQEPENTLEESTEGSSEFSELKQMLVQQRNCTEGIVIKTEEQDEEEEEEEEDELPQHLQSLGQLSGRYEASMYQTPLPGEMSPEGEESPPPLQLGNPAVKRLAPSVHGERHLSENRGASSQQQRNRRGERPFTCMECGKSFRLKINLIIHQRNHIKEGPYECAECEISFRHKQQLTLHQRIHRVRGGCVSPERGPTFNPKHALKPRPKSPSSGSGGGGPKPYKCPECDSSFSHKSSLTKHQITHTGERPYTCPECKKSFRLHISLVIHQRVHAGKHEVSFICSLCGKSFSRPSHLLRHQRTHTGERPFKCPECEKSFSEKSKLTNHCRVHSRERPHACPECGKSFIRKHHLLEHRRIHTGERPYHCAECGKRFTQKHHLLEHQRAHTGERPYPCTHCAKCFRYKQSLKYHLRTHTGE
UniProt Q9UDV7: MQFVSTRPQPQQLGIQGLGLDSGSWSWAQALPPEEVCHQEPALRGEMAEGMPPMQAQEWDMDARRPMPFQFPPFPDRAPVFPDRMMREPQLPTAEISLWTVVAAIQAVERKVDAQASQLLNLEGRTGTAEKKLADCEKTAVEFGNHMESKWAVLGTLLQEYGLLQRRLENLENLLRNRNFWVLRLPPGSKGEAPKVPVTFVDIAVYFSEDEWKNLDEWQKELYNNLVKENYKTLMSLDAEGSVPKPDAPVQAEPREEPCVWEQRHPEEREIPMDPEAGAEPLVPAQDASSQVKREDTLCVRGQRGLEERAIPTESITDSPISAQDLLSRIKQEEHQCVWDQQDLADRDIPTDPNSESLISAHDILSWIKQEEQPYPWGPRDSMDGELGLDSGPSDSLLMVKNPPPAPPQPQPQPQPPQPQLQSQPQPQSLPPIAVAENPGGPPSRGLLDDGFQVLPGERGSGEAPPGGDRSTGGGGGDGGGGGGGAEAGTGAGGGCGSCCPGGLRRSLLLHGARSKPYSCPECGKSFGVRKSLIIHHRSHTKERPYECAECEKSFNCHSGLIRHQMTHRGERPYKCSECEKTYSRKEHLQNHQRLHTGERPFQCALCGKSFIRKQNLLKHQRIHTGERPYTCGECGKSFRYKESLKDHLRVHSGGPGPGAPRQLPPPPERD

Tests used:
[1] = target: DUF3669 domain of human ZNF398 (human) (UniProt Q8TD17); experiment: two-hybrid; yeast co-expressing an N-terminal region linked to the GAL4 DNA-binding domain (BD) or the GAL4 activation domain (AD); growth on a selective medium
[2] = target: DUF3669 domain of human ZNF777 (human) (UniProt Q9ULD5); experiment: as above

Substance	binding [1]	binding [2]
DUF3669 domain of human ZNF282 (from UniProt Q9UDV7) (domain or fragment)	binds	binds
DUF3669 domain of human ZNF398 (from UniProt Q8TD17) (domain or fragment)	–	binds
